Source: the supplement of paper PMC12595434, “Development of retinoid nuclear receptor pathway antagonists through targeting aldehyde dehydrogenase 1A3” (iScience, 2025)
This is one part of the list. Single values of this set are uncertain.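 Many melting curves are irregular; where none melted, Tm was taken as 64 °C.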

Amino acid sequences for entries named in this document (tags omitted). A change or cut given only in a name is not applied to a line headed by its entry.
UniProt P61006: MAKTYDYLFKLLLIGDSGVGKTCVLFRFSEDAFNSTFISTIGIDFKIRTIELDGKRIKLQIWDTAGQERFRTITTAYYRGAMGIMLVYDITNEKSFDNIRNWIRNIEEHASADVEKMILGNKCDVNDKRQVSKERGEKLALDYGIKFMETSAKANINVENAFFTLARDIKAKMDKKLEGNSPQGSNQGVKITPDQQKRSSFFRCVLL
UniProt P52790: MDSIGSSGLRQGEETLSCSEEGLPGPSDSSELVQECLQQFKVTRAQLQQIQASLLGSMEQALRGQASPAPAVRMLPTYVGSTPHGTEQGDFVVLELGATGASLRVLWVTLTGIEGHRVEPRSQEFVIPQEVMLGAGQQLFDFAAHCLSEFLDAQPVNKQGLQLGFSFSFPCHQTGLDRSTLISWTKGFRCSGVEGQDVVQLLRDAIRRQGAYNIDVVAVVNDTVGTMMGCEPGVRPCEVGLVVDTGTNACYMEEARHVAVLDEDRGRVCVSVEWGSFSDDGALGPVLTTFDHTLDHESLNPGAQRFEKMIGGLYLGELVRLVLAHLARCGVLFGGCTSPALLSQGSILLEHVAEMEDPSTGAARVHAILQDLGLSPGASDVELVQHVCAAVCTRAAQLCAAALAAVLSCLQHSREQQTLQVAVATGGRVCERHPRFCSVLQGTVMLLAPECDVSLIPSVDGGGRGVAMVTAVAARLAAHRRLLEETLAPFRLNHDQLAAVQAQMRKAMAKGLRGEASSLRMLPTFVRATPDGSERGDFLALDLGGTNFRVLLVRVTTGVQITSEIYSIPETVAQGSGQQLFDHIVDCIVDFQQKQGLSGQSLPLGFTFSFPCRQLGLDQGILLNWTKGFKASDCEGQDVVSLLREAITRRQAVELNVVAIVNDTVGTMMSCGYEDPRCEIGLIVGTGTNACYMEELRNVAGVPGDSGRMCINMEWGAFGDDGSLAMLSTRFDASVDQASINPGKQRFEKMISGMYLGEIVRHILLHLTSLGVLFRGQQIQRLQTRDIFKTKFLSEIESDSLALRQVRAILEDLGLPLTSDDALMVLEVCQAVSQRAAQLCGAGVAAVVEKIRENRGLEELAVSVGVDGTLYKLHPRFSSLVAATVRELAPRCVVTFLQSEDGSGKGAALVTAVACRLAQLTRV
UniProt P60903, whole entry: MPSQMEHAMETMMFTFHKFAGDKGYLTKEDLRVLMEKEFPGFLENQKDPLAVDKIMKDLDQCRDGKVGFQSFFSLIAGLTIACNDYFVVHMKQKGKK
UniProt P55735: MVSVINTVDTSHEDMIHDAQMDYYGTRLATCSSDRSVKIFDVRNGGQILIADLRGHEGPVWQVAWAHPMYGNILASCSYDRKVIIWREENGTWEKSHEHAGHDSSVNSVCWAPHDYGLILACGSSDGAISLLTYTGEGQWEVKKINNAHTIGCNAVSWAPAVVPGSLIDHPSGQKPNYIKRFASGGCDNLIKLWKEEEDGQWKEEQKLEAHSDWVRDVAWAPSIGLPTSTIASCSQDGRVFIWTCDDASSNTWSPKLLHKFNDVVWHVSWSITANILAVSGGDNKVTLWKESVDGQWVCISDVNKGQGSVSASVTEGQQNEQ
UniProt P61923: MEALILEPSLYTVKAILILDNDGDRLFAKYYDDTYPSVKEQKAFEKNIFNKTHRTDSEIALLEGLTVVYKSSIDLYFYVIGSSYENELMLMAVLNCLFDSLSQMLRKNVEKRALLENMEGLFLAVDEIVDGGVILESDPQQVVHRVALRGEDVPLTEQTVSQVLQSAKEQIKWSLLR
UniProt P60842, whole entry: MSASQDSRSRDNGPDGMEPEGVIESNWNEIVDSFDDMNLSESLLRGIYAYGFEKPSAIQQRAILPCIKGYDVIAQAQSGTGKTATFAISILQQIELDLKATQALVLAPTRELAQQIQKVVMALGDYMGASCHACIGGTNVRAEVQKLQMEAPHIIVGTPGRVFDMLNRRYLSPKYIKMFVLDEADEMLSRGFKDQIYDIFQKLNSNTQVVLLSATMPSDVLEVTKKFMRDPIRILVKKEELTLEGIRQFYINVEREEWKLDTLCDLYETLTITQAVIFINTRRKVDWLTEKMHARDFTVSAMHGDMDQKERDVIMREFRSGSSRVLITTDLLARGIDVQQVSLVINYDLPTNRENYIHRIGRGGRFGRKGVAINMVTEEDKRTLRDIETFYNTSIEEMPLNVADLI
UniProt P61457: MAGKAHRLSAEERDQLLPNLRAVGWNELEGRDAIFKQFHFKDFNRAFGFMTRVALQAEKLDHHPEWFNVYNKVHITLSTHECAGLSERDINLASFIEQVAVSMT
UniProt P54646: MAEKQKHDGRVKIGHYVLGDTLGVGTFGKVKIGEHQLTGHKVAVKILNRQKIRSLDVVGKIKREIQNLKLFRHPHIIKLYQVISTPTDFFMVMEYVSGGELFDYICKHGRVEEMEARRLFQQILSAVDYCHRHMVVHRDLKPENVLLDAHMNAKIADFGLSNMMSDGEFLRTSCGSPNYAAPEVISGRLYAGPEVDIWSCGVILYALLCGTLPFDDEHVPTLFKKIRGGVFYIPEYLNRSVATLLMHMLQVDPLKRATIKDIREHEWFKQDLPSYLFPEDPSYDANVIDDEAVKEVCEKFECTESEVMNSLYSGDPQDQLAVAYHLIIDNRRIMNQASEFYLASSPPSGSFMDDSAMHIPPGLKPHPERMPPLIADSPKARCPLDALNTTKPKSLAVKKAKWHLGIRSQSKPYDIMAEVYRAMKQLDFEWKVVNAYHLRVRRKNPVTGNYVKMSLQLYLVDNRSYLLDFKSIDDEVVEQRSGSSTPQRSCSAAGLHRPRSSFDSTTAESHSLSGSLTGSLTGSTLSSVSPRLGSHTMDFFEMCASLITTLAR
UniProt P54253: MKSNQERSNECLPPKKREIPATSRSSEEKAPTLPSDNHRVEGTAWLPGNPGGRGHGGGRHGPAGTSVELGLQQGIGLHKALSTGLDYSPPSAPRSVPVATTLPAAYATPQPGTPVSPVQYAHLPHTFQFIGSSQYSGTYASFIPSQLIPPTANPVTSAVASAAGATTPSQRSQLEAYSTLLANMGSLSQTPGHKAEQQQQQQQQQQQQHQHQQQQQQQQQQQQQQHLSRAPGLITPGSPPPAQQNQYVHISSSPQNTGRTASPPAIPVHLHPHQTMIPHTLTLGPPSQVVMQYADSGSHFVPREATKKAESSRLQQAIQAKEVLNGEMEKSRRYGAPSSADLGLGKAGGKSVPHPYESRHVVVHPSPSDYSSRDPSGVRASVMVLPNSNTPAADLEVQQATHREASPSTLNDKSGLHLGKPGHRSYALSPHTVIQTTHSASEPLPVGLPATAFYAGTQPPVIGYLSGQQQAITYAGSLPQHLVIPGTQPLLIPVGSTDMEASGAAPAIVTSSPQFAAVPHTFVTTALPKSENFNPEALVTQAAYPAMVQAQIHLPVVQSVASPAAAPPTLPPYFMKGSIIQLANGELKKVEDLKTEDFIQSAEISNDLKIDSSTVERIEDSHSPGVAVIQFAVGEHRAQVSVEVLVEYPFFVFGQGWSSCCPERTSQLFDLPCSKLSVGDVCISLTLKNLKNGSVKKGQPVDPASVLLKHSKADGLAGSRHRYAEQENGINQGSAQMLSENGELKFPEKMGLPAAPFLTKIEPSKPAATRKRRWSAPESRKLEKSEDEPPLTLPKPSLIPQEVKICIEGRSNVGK
UniProt P61225: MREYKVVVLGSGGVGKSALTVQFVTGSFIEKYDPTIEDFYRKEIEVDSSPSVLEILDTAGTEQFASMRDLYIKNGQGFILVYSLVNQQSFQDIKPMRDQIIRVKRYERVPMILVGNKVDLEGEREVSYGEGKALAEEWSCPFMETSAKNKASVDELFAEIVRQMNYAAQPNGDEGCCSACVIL
UniProt P62491: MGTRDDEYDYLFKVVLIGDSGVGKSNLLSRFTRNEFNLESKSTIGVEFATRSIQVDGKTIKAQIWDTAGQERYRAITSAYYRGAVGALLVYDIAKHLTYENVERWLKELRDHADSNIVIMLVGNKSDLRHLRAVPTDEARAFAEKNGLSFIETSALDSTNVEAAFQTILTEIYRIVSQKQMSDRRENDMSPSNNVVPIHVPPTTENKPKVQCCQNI
UniProt P57678: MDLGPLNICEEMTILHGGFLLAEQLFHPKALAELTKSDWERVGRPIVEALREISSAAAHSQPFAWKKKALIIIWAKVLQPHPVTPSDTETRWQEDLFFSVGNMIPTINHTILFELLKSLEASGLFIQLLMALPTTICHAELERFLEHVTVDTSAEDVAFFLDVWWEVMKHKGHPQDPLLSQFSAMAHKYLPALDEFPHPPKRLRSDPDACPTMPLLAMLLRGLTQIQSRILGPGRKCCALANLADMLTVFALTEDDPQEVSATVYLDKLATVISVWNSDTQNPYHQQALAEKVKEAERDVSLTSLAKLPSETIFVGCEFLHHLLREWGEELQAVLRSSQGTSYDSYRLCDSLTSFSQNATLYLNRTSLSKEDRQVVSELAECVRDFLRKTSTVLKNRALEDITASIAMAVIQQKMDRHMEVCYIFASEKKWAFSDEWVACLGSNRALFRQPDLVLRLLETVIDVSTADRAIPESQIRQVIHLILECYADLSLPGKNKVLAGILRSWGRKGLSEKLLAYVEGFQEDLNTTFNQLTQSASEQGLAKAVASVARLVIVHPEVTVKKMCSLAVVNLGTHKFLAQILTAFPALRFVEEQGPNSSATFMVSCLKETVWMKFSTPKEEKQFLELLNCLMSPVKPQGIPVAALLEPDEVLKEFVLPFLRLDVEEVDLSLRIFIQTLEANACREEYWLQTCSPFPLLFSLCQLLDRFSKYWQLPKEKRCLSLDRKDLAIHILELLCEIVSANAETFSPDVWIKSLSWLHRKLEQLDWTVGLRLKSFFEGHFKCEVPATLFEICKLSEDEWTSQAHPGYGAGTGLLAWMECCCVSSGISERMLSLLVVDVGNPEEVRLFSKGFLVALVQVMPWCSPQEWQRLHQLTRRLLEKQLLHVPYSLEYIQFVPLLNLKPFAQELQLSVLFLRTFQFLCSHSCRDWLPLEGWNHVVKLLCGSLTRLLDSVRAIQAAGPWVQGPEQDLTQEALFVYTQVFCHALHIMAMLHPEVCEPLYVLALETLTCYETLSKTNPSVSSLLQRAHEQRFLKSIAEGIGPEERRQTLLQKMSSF
UniProt P53367: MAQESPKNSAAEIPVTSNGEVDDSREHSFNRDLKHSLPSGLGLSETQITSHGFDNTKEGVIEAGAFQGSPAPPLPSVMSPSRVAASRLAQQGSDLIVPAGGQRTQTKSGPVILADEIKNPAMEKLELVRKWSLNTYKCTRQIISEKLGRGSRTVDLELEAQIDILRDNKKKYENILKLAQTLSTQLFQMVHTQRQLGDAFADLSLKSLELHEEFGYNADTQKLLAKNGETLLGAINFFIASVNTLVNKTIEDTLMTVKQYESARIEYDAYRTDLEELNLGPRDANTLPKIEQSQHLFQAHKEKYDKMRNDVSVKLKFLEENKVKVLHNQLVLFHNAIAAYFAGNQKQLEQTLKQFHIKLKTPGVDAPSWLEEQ
UniProt P58004: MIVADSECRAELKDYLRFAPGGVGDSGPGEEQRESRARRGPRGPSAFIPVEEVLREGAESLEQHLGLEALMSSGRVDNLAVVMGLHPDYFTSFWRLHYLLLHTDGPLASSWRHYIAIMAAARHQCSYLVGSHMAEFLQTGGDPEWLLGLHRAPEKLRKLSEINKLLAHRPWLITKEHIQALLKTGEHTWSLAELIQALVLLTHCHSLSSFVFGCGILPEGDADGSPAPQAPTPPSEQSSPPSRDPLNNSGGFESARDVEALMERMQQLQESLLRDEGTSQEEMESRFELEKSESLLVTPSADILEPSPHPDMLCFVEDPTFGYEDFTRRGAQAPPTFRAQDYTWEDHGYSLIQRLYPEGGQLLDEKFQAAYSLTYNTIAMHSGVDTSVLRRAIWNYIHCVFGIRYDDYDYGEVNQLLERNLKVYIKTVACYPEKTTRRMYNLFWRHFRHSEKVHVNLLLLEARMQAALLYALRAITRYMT
UniProt P57772: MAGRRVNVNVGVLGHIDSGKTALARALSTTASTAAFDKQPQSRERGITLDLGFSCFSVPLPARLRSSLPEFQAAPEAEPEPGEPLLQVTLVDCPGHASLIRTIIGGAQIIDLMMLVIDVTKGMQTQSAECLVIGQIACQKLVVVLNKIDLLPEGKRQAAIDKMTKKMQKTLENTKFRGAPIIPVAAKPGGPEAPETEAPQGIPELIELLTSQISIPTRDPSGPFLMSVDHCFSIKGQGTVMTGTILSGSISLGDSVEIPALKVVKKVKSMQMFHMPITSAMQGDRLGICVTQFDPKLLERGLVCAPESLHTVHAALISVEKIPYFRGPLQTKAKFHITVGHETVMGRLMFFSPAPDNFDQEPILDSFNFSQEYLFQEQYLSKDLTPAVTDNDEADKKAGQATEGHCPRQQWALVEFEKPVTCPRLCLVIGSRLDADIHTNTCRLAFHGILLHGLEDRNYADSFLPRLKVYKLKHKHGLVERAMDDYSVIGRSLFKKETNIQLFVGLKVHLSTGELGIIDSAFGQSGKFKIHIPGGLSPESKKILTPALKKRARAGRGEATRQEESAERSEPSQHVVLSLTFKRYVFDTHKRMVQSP

compound: CCc1cnccc1C(=O)Nc1cc2c(cc1F)NC(=O)CC2; assay: melting temperature shift (DMSO Tm minus MBE1-treated Tm) in cellular thermal proteome profiling; higher = less thermal stabilization by MBE1 (negative = stabilized by MBE1); settings: A375; MBE1 concentration: 1 uM

Target | melting temperature shift [°C]
RAB8A (UniProt P61006) | 0.623
UniProt P52790 | -0.00611
PPP1CA (UniProt P62136) | -0.812
UniProt P55199 | -0.455
S100A10 (UniProt P60903) | 0.301
SEC13 (UniProt P55735) | 0.147
COPZ1 (UniProt P61923) | 0.228
EIF4A1 (UniProt P60842) | -0.0733
UniProt P68032 | -5.2
RPS6 (UniProt P62753) | -0.44
RPS15A (UniProt P62244) | 0.22
AK2 (UniProt P54819) | -2.58
PCBD1 (UniProt P61457) | -2.79
RPL7A (UniProt P62424) | -0.867
PRKAA2 (UniProt P54646) | 0.605
UniProt P54253 | 2.21
EIF5 (UniProt P55010) | -0.256
RPL31 (UniProt P62899) | -2.57

Another view of part of the listing above:
EIF4A1 (UniProt P60842)
  melting temperature shift [°C]: -0.0733
UniProt P68032
  melting temperature shift [°C]: -5.2

(cont.)

Target | melting temperature shift [°C]
RAP2B (UniProt P61225) | -1.58
UniProt P57721 | -0.055
SLC5A3 (UniProt P53794) | -1.51
PMS2 (UniProt P54278) | -0.423
UniProt P62491 | -0.65
GEMIN4 (UniProt P57678) | -0.192
ARFIP1 (UniProt P53367) | 0.44
NAPA (UniProt P54920) | -0.633
VCP (UniProt P55072) | -1.28
UniProt P55201 | -0.602
KPNA2 (UniProt P52292) | -0.519
UniProt P52848 | 0.446
POLR2G (UniProt P62487) | -1.46
SESN2 (UniProt P58004) | -0.428
POLR2H (UniProt P52434) | 0.0366
EEFSEC (UniProt P57772) | 0.275
KPNA1 (UniProt P52294) | -0.773
